Amino acid sequences for entries named in this document (tags omitted).
UniProt P04608: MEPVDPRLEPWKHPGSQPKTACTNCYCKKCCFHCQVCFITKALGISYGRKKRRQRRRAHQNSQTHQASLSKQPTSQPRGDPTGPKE
UniProt Q15003: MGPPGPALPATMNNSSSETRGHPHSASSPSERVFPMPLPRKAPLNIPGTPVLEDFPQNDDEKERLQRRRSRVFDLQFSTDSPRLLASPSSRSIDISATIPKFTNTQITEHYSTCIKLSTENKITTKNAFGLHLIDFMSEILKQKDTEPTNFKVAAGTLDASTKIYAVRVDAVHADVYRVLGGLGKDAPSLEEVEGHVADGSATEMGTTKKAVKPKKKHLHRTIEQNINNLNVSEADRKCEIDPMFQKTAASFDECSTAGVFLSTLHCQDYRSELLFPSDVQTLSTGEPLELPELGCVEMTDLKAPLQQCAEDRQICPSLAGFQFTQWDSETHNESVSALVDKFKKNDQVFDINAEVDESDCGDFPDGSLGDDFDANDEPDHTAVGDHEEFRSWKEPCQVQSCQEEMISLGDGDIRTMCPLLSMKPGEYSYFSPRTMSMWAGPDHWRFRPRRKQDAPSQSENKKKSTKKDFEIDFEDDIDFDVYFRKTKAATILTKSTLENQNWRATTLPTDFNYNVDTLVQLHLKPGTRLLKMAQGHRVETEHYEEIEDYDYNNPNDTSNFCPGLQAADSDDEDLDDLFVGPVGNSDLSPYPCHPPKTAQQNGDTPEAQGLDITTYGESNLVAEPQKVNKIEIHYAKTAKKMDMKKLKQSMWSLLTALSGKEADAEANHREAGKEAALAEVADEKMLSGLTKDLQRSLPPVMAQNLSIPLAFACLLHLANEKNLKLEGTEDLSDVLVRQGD
UniProt Q13547: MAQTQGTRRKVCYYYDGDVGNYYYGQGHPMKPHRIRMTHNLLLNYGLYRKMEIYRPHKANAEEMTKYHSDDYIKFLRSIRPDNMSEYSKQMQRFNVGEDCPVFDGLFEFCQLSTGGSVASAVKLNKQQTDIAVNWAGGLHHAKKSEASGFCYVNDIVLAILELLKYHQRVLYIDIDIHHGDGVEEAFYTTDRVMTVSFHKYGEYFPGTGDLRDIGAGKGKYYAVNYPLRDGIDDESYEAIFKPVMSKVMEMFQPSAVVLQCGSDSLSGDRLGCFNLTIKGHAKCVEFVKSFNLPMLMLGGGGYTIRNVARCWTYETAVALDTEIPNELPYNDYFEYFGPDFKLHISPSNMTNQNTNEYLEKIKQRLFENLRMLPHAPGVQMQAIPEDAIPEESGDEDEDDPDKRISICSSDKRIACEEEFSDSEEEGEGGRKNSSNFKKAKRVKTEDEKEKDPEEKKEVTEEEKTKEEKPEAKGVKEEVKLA
UniProt Q12824: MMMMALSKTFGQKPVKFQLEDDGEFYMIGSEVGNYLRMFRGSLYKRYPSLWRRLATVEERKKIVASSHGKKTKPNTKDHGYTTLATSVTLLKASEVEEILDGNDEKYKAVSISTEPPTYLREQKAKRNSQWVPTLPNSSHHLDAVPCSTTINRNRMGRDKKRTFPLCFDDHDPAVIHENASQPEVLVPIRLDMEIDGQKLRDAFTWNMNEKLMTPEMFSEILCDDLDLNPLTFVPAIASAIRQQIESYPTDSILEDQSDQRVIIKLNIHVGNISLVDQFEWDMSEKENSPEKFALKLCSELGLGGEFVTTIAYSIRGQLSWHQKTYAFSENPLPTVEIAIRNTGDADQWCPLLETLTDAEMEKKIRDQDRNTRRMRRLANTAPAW
UniProt P36873: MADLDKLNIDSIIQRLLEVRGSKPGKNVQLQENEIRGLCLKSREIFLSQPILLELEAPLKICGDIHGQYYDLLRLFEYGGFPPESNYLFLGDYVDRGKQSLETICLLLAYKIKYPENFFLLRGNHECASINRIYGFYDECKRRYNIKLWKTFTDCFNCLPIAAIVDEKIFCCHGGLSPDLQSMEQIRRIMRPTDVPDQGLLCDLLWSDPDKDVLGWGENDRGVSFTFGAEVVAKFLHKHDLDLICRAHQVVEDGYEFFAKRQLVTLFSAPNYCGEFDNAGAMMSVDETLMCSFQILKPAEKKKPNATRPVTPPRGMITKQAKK
UniProt Q9Y4A5: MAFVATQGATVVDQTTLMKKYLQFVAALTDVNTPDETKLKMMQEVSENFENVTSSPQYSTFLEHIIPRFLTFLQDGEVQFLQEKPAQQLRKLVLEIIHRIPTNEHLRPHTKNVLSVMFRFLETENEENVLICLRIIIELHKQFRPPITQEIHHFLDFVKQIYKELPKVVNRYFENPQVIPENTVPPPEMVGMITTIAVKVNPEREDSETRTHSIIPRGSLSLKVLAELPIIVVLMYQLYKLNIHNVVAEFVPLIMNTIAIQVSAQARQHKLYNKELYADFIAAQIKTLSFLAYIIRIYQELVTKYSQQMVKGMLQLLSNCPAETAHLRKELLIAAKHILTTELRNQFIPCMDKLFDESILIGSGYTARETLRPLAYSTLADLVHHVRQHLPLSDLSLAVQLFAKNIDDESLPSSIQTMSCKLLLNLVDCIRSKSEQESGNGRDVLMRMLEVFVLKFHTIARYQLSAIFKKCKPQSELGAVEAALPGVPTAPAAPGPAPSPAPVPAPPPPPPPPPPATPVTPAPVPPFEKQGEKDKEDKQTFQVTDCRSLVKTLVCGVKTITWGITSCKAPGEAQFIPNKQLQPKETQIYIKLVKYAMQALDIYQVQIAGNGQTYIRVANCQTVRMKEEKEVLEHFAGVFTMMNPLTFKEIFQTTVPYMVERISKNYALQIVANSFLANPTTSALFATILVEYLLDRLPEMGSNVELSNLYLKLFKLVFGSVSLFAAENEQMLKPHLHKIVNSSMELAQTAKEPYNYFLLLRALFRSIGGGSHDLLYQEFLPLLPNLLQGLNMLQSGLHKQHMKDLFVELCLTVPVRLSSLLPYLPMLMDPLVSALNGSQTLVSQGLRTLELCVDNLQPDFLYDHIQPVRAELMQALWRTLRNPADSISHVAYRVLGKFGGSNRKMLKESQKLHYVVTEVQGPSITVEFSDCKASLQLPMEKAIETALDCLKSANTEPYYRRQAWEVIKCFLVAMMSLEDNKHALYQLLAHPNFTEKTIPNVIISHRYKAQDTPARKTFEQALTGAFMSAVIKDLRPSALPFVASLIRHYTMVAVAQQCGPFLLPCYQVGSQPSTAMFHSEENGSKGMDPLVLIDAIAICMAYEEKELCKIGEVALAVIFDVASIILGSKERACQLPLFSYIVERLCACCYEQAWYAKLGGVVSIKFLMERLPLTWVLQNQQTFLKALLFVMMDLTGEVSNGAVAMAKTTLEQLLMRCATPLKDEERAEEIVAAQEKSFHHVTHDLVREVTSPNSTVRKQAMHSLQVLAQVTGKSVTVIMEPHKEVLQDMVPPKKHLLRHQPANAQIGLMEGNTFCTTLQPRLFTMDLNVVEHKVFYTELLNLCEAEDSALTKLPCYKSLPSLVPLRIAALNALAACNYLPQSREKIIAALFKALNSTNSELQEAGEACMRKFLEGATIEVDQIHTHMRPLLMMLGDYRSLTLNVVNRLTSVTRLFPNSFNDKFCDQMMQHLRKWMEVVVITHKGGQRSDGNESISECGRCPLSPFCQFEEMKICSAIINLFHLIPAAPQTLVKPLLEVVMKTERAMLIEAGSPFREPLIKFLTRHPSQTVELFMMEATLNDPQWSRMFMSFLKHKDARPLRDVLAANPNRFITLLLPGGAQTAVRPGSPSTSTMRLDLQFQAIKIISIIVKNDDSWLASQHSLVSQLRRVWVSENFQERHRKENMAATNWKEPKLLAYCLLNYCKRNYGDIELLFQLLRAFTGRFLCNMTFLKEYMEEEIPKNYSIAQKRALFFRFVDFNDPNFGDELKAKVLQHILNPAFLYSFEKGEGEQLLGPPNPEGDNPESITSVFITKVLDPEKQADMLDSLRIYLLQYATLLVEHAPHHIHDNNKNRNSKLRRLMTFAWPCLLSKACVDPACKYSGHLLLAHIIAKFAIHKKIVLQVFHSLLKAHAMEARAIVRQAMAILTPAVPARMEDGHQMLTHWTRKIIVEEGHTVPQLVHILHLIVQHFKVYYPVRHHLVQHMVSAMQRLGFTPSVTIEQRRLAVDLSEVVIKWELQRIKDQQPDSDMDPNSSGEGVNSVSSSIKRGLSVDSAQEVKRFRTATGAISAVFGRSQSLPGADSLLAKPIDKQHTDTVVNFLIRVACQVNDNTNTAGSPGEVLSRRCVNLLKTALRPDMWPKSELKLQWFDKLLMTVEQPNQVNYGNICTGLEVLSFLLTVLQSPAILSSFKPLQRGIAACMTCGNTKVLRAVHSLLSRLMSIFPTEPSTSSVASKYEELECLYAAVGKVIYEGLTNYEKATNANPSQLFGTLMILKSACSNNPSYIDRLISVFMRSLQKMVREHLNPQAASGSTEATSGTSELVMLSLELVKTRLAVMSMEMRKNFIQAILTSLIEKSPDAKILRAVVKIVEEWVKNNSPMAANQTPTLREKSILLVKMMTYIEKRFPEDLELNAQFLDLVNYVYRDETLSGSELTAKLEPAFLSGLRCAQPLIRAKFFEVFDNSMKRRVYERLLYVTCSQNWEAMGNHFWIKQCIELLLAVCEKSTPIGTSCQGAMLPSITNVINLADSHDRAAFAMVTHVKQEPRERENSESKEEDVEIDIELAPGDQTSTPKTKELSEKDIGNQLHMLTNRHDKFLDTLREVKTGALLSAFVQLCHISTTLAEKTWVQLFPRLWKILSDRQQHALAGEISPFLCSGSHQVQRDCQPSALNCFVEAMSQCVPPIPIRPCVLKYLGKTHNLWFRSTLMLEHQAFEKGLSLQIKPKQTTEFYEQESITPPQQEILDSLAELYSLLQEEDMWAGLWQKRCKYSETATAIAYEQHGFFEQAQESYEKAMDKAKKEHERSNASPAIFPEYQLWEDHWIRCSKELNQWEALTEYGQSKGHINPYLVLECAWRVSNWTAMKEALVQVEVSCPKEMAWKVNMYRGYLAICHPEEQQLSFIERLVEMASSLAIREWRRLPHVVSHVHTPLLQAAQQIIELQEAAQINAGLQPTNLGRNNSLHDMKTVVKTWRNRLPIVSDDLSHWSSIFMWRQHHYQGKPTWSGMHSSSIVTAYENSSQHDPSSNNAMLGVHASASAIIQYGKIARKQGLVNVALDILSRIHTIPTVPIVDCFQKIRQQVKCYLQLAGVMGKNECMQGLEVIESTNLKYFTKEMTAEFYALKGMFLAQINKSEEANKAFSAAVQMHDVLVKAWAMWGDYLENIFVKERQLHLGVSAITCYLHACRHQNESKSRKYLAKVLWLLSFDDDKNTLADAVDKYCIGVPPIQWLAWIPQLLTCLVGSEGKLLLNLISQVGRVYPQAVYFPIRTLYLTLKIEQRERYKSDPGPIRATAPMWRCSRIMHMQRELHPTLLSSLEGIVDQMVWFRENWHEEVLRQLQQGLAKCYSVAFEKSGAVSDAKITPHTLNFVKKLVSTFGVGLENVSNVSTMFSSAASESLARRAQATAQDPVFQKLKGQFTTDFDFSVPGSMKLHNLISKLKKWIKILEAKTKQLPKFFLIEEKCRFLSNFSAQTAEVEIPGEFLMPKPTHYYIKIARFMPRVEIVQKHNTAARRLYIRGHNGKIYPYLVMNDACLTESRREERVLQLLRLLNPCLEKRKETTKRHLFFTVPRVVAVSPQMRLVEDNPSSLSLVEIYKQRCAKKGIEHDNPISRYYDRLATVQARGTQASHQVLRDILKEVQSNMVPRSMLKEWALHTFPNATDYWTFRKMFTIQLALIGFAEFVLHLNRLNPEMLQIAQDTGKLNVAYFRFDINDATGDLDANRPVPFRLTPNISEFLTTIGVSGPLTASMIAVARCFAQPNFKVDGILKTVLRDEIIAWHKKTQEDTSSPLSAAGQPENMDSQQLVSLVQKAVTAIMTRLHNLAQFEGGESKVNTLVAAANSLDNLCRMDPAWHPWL
UniProt O95619: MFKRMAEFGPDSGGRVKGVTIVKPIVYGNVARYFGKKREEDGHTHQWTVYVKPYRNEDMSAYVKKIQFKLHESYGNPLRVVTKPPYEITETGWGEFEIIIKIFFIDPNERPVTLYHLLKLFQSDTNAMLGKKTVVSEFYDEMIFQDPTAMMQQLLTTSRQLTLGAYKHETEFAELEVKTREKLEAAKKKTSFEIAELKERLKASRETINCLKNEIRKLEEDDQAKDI
UniProt P25490: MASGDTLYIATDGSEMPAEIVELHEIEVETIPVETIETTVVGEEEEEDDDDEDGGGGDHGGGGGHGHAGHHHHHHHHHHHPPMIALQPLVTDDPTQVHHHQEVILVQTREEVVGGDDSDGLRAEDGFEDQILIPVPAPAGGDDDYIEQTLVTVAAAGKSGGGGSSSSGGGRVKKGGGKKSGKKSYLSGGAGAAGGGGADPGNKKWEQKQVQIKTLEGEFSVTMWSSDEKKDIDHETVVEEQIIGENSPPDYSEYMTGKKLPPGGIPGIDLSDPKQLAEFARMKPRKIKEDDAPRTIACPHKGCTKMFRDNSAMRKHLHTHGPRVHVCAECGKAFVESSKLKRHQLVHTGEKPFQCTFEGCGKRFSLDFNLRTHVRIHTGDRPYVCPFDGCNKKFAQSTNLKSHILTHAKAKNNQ

According to PMC2702331:

Biological target: GST-Tat (HIV-1 HXB2, 86 amino acids) (HIV-1 HXB2) (UniProt P04608)
Test: affinity purification with mass spectrometry; only the target purified

Row | Substance | binding
1 | BAF53A (from UniProt O96019 1-429) | binds
2 | BAF60a (from UniProt Q96GM5 1-515) | binds
3 | BAF170 (from UniProt Q8TAQ2 1-1214) | binds
4 | BRG1 (from UniProt P51532 1-1647) | binds
5 | BTAF1 (from UniProt O14981 1-1849) | binds
6 | CAPD2 (from UniProt Q15021 1-1401) | binds
7 | CAPH (from UniProt Q15003 1-741) | binds
8 | CTIP2 (from UniProt Q9C0K0 1-894) | binds
9 | CXXC1 (from UniProt Q9P0U4 1-656) | binds
10 | DMAP1 (from UniProt Q9NPF5 1-467) | binds
11 | DNCL1 (from UniProt P63167 1-89) | binds
12 | EEF1D (from UniProt P29692-2) | binds
13 | HDAC-1 (from UniProt Q13547 1-482) | binds
14 | HDAC-2 (from UniProt Q92769 1-488) | binds
15 | ILF2 (from UniProt Q12905 1-390) | binds
16 | INI1 (from UniProt Q12824 1-385) | binds
17 | Ikaros (from UniProt Q13422 1-519) | binds
18 | KPNB1 (from UniProt Q14974 1-876) | binds
19 | Lamin B receptor (from UniProt Q14739 1-615) | binds
20 | MBD2 (from UniProt Q9UBB5 1-411) | binds
21 | MLL (from UniProt Q03164 1-3969) | binds
22 | NUMA1 (from UniProt Q14980 1-2115) | binds
23 | Nup98 (from UniProt P52948 1-880) | binds
24 | Nup153 (from UniProt P49790 1-1475) | binds

Row | Substance | binding
25 | Nup205 (from UniProt Q92621 1-2012) | binds
26 | Nup358 (from UniProt P49792 1-3224) | binds
27 | P400 (from UniProt Q96L91 1-3159) | binds
28 | PDS5A (from UniProt Q29RF7 1-1337) | binds
29 | PDS5B (from UniProt Q9NTI5 1-1447) | binds
30 | PPP1CC (from UniProt P36873 1-323) | binds
31 | RUVBL1 (from UniProt Q9Y265 1-456) | binds
32 | RbAp48 (from UniProt Q09028 1-425) | binds
33 | SMC2 (from UniProt O95347 1-1197) | binds
34 | SMC3 (from UniProt Q9UQE7 1-1217) | binds
35 | SMC4 (from UniProt Q9NTJ3 1-1288) | binds
36 | SNF2H (from UniProt O60264 1-1052) | binds
37 | SPT16 (from UniProt Q9Y5B9 1-1047) | binds
38 | SSRP1 (from UniProt Q08945 1-709) | binds
39 | SUZ12 (from UniProt Q15022 1-739) | binds
40 | Setd1A (from UniProt O15047 1-1707) | binds
41 | TRRAP (from UniProt Q9Y4A5 1-3859) | binds
42 | TUBB3 (from UniProt Q13509 1-450) | binds
43 | XPO1 (from UniProt O14980 1-1071) | binds
44 | YBX1 (from UniProt P67809 1-324) | binds
45 | YEATS4 (from UniProt O95619 1-227) | binds
46 | YY1 (from UniProt P25490 1-414) | binds
47 | c1qbp (from UniProt Q07021 74-282) | binds

These are yes or no findings as the source states them, for the method shown. Binding seen in cells or lysates may run through a third protein. These calls come from enrichment with a bait or labelling near it, and not all partners need be listed.
